Data reported in PMC3641059.
These are yes or no findings as the source states them, for the method shown. Some entries that bind do so weakly or less than the wild type. For some of these results: Tags and fused reporters may be left off the sequences shown. Each block holds one binder with its values, some of them ahead of it.

Experiments:
[1] = target: T1, Ede1-FRB (S. cerevisiae) (UniProt P34216); assay: PICT (co-translocation of GFP-tagged prey with FRB-tagged bait to an FKBP-tagged anchor, live-cell fluorescence imaging); living S. cerevisiae (tor1-1, FPR1 deleted), anchor Pil1-RFP-FKBP, bait-FRB, prey-GFP; cells grown in SD medium at 25°C, vehicle (DMSO) or 10 µM rapamycin, imaged after 15 min; scored positive when >90% of membrane patches in the GFP channel colocalised with the anchor; also done in ste5Δ and ste50Δ cells
T1 sequence: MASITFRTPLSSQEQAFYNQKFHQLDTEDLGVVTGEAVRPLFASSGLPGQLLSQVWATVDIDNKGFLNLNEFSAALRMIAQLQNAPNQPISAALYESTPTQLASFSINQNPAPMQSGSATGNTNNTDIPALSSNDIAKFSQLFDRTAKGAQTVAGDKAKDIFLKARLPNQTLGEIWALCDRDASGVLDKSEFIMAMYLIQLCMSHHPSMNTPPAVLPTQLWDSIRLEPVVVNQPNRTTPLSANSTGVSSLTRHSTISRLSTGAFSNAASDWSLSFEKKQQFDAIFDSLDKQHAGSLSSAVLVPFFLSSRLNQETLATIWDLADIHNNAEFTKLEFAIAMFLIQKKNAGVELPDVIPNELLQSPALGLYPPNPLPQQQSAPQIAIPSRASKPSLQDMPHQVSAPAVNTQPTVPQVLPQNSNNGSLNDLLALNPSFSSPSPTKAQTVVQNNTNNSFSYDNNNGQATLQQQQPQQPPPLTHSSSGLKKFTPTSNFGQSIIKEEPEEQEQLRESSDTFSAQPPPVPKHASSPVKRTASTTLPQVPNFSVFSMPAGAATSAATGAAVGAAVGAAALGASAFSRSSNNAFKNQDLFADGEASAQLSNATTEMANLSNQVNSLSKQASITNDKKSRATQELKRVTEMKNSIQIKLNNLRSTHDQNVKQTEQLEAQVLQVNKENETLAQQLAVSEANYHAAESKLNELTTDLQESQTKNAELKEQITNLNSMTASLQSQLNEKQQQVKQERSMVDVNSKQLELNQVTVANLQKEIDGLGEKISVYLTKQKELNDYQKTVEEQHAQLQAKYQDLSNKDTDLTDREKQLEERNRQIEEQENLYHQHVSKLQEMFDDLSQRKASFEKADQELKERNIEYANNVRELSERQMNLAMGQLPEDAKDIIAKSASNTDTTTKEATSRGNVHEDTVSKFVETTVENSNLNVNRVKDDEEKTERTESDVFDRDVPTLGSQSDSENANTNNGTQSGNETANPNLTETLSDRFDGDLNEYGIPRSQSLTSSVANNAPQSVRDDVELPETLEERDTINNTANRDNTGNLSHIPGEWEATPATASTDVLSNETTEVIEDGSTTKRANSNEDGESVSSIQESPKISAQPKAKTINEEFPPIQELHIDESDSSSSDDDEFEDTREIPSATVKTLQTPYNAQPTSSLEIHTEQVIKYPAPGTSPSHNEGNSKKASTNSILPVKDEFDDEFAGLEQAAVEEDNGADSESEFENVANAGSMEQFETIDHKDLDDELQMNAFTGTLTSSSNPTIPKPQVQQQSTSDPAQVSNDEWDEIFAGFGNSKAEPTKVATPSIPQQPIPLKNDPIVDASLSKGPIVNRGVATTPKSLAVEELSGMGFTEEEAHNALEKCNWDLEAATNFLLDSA

[2] = target: T1, Ede1-FRB (S. cerevisiae); assay: PICT-FRAP (fluorescence recovery after photobleaching of GFP-tagged protein recruited to the anchor sites); living S. cerevisiae, anchor Pil1-RFP-FKBP, rapamycin; 488 nm laser bleaching of an anchoring platform; exchange of the GFP-tagged protein followed
[3] = target: T2, Ste50 (S. cerevisiae) (UniProt P25344); assay: PICT (co-translocation of GFP-tagged prey with FRB-tagged bait to an FKBP-tagged anchor, live-cell fluorescence imaging); living S. cerevisiae (tor1-1, FPR1 deleted), anchor Pil1-RFP-FKBP, bait-FRB, prey-GFP; cells grown in SD medium at 25°C, vehicle (DMSO) or 10 µM rapamycin, imaged after 15 min; scored positive when >90% of membrane patches in the GFP channel colocalised with the anchor; also done in ste5Δ and ste50Δ cells
T2 sequence: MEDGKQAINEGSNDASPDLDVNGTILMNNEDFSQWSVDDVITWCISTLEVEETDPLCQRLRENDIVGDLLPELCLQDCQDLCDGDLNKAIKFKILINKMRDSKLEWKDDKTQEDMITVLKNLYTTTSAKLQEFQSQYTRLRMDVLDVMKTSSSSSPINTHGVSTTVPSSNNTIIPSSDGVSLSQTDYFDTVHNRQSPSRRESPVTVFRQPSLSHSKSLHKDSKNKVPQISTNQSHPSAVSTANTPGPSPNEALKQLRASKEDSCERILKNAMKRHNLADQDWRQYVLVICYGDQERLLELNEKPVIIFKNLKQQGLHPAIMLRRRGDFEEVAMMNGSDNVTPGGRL

[4] = target: T3, Ste5 (S. cerevisiae) (UniProt P32917); assay: as above
T3 sequence: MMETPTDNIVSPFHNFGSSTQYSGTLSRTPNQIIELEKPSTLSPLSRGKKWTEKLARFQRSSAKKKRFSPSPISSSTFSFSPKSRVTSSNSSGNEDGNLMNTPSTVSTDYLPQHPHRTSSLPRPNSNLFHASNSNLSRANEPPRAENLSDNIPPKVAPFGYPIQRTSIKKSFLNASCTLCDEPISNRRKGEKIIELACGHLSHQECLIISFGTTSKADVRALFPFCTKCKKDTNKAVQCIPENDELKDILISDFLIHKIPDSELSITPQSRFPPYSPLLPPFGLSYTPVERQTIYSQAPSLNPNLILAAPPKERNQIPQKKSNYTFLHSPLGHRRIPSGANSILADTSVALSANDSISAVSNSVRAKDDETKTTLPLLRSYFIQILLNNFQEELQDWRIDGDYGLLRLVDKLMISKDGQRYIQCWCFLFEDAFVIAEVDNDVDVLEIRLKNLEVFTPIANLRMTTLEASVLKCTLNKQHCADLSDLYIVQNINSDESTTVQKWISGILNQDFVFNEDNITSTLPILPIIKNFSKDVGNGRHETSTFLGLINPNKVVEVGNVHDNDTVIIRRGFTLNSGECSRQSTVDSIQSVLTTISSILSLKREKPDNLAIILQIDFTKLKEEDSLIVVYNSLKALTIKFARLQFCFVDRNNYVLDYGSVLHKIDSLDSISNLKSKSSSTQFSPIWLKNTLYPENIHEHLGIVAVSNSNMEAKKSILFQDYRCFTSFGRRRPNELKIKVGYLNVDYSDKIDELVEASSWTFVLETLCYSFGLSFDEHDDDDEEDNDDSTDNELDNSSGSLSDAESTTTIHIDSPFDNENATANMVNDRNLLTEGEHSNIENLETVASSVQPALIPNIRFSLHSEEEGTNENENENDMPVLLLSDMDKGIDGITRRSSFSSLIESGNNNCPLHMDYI

- binding [1]: binds
- binding [2]: binds
B1: Syp1-GFP (protein, UniProt P25623 1-870)
chain: MTEQRTKYADSILTTKSPYEATETIRIRLSQVKLLNKDFYLLFKELANLKRNYAQQLRKIIAENEDITKILNAQMIESNVLTPQEMSAFRFNSLGELRNVWDTVIEELKSDLKSSTEYYNTLDQQVVRELKESVENNTSWRESKDLHSKLSKNAASIEHYSKNNENSSHLEEARRQWDQQSPYLFELFETIDYNRLDTLKNCMLRFQTSFSDYLLNTTKECETVMTKFLAFEPQSEIDRFAKDASQYNFQLSSSSKEVVPNNASPASATGARPVSVSNGAANTEREKKSPQKDKRKSAFGNIGHRLASASSSLTHNDLMNNEFSDSTNNSSLKSKKSSHTLRSKVGSIFGRNKTKNKRQQQSSSNSHIQASITETPNNSSTRVSSTATSSIYQKQRRPTYSSSKSNNWTPGEASDTPPLPPHATPKNVDAPVTADTPPAQTFTPSEVPPSTPQQSSPPTAKEPDSSNLPKTVPISISQPPLQPQSKTKPLPVEPASPSISLPTATVDNQPSGQVDSRPLHIRAPALPPSRKQNFIHNRDSQLYDSLPNHGSGATPTSSSLSSIPQERPVSTLSSQITGELRELNPQATGSSTSLVGQSLFQHSSLDTSQFGLNASIAEVLNASFKDGMLQNSQLIGEIALNYLPNSVMNSPLPIGINLRINNGAKFEKVILNQAFIERVAPEEFKVNPSFIDSRTLGAIKYSIKEPIAPIVIHPVWRFESHQASVVLTVKMSPSLPDEISQIVIEDLVVFVNIDGANATSALSKPQGSFSKEKKRITWRFKEPVVLTRNGEGQRLIARFITDGLAHESAKGVITKFTISETDNVALPHSGAGSGITLTCQELDENNPFGGEWLDVNTKRTLTTGNYHGLA

- binding [3]: binds
- binding [4]: binds
B2: Ste11 (protein, UniProt P23561 1-717)
chain: MEQTQTAEGTDLLIGDEKTNDLPFVQLFLEEIGCTQYLDSFIQCNLVTEEEIKYLDKDILIALGVNKIGDRLKILRKSKSFQRDKRIEQVNRLKNLMEKVSSLSTATLSMNSELIPEKHCVIFILNDGSAKKVNVNGCFNADSIKKRLIRRLPHELLATNSNGEVTKMVQDYDVFVLDYTKNVLHLLYDVELVTICHANDRVEKNRLIFVSKDQTPSDKAISTSKKLYLRTLSALSQVGPSSSNLLAQNKGISHNNAEGKLRIDNTEKDRIRQIFNQRPPSEFISTNLAGYFPHTDMKRLQKTMRESFRHSARLSIAQRRPLSAESNNIGDILLKHSNAVDMALLQGLDQTRLSSKLDTTKIPKLAHKRPEDNDAISNQLELLSVESGEEEDHDFFGEDSDIVSLPTKIATPKNWLKGACIGSGSFGSVYLGMNAHTGELMAVKQVEIKNNNIGVPTDNNKQANSDENNEQEEQQEKIEDVGAVSHPKTNQNIHRKMVDALQHEMNLLKELHHENIVTYYGASQEGGNLNIFLEYVPGGSVSSMLNNYGPFEESLITNFTRQILIGVAYLHKKNIIHRDIKGANILIDIKGCVKITDFGISKKLSPLNKKQNKRASLQGSVFWMSPEVVKQTATTAKADIWSTGCVVIEMFTGKHPFPDFSQMQAIFKIGTNTTPEIPSWATSEGKNFLRKAFELDYQYRPSALELLQHPWLDAHII
